No constants are given. Whether binding was seen depends on the method and setting. Some entries that bind do so weakly or less than the wild type.
Target: CD100 (Semaphorin 4D) (human (endogenous in YTS and NK cells)) (UniProt Q92854)
Experiment: two-dimensional non-reducing/reducing SDS-PAGE of an immunoprecipitate; lysate of surface 125I-labelled YTS cells (0.5% Nonidet P-40, 10 mM iodoacetamide, 5 mM EDTA, PBS pH 8.3) immunoprecipitated with mAb 172.4; first dimension non-reducing, second dimension reducing; autoradiography

By UniProt entry, the sequences of proteins in these tests, tags left out. Residues count along the entry.
UniProt Q92854, residues 22-862: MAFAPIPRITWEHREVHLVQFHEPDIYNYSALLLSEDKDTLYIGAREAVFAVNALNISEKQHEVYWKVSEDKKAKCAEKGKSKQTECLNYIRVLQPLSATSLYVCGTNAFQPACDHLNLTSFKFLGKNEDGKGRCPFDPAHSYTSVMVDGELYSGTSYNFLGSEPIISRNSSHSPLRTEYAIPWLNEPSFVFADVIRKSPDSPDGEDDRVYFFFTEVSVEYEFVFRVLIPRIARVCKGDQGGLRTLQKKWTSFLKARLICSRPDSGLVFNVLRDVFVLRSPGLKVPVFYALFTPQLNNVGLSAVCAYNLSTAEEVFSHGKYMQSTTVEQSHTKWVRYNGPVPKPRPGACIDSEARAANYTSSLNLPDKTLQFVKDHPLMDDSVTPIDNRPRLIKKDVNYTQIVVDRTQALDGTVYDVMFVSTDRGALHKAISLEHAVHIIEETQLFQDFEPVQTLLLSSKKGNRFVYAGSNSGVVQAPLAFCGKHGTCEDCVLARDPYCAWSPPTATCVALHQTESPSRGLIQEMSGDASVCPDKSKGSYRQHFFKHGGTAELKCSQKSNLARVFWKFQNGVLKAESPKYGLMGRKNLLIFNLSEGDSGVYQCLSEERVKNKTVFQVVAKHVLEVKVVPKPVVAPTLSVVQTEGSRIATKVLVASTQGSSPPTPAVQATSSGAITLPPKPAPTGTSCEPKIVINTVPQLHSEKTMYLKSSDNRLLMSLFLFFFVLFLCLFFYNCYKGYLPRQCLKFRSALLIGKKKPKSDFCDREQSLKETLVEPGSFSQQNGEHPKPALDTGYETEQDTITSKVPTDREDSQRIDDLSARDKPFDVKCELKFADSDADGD

binding: binds
Substance: CD100 (Semaphorin 4D) (from UniProt Q92854 22-862)
